Experimental data taken from PubChem BioAssay AID720560 (Broad Institute, 2013).
Listed are the inconclusive results; actives and inactives stand elsewhere.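 Rule for the calls: active = signal drop whose fitted half-maximal concentration is at most twice the top valid dose; inconclusive = flat moderate drop between 30 and 70 percent, or an unreliable fit; inactive = the rest.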

Experiment: inhibitors of HRE-driven luciferase expression, dose response, ARNT-TACC3 inhibitor project, HeLa cells, luminescence, dry powder samples, 2158-08 (AID 720560)
Settings: HeLa 3xHRE-luciferase reporter; at 60 µM (top of the series)

FC(F)(F)c1cc(-c2nn[nH]n2)cc(C(F)(F)F)c1
activity change, negative = inhibition: inconclusive: -17.2%
